{"sequences": {"note": "Amino acid sequences for entries named in this document (tags omitted).", "UniProt Q05471": "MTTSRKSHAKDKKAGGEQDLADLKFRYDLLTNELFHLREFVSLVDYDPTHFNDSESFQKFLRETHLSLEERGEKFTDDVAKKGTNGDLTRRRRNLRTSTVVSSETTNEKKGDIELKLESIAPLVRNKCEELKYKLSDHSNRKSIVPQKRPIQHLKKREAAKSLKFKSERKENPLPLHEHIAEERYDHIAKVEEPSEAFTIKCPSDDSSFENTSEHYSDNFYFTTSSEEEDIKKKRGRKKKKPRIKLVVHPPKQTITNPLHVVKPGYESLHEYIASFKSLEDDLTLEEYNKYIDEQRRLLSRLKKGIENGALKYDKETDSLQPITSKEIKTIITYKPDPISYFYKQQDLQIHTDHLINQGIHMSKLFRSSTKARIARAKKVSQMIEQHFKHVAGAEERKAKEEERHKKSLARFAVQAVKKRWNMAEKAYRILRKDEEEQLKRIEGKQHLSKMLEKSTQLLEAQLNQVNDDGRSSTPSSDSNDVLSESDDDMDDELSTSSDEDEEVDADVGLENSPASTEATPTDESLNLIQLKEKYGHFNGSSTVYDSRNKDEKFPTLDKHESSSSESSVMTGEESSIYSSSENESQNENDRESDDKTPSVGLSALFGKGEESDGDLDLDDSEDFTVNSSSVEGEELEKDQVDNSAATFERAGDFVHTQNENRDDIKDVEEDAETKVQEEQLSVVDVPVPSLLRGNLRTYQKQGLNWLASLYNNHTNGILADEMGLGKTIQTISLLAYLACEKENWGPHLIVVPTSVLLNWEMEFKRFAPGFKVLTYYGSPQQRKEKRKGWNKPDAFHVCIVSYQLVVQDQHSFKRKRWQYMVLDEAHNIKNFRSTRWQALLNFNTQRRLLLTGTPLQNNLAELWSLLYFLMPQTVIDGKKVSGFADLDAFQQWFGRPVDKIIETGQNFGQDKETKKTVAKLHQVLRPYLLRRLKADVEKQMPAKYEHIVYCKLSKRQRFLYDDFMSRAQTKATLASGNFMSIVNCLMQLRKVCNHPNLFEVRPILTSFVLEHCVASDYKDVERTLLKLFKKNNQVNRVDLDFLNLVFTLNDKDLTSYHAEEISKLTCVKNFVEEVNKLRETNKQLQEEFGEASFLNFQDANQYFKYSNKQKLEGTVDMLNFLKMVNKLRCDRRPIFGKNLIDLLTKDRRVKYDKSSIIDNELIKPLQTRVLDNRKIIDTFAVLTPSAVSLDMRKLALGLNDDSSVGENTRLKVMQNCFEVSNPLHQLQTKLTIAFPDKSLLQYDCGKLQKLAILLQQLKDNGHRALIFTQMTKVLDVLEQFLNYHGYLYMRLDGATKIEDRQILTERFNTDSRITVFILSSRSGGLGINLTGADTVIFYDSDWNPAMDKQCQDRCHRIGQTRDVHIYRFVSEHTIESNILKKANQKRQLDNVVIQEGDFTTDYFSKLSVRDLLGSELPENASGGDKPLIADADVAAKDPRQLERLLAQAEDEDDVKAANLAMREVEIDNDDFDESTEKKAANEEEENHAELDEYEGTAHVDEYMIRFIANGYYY", "UniProt Q12509": "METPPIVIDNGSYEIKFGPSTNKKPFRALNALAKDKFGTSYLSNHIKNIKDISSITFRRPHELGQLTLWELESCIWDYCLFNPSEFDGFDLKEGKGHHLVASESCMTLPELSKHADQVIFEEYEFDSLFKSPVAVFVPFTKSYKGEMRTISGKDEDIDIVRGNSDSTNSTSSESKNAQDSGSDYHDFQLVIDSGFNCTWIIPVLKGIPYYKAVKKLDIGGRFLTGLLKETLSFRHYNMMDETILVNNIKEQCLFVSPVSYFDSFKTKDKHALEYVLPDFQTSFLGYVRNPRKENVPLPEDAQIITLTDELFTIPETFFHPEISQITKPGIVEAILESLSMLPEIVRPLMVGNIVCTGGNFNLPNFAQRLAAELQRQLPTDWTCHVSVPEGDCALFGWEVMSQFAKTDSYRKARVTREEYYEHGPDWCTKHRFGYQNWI", "UniProt Q03388": "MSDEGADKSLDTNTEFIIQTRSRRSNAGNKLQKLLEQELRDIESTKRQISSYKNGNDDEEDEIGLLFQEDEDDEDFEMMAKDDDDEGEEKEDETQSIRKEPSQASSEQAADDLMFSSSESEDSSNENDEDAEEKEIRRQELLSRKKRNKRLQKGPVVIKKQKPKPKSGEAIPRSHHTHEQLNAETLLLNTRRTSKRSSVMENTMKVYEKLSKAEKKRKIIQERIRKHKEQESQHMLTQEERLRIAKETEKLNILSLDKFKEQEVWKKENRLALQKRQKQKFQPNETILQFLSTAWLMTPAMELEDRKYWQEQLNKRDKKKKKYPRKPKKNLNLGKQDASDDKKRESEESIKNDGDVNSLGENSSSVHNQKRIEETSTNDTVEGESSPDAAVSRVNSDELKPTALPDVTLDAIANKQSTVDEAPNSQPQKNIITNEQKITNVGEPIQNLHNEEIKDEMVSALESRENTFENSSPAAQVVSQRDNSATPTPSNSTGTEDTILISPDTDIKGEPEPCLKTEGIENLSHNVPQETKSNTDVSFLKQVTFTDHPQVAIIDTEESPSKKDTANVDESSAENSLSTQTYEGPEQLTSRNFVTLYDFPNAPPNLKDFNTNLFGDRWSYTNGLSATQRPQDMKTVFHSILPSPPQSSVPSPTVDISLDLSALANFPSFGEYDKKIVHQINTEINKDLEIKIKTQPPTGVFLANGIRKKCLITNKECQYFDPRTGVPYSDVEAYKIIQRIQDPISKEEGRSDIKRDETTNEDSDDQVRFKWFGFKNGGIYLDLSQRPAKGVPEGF", "UniProt Q03433": "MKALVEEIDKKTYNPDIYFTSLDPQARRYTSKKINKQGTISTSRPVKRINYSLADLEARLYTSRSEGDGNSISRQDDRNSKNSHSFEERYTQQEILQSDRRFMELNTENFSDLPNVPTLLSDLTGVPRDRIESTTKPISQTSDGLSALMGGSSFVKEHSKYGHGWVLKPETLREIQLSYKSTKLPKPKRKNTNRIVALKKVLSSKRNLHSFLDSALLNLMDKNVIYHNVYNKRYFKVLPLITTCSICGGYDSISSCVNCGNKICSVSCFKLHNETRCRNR", "UniProt Q06707": "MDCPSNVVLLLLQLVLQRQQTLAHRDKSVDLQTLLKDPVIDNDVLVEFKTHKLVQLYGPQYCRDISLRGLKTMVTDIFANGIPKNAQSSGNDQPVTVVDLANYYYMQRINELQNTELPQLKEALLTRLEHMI"}, "source": "paper PMC3776929", "note": "No constants are given. Whether binding was seen depends on the method and setting. Binding seen in cells or lysates may run through a third protein. Some entries that bind do so weakly or less than the wild type."}
{"biological_target": "Swr1, FLAG-tagged catalytic subunit of the SWR1 complex (S. cerevisiae) (UniProt Q05471)", "assay": "co-IP; FLAG affinity purification of SWR1 (or a subcomplex) from S. cerevisiae, eluted with 3× FLAG peptide; SDS-PAGE (4%-12% Bis-Tris), Coomassie or SYPRO Orange stain; band intensities normalised for protein size for the stoichiometry"}
{"substance": "Act1 (from UniProt P60010 1-375)", "binding": "binds"}
{"substance": "Arp6 (from UniProt Q12509 1-438)", "binding": "binds"}
{"substance": "Swc2 (from UniProt Q03388 1-795)", "binding": "binds"}
{"substance": "Swc6 (from UniProt Q03433 1-280)", "binding": "binds"}
{"substance": "Swc7 (from UniProt Q06707 1-132)", "binding": "binds"}
